This is an account of results in patent US20100104509A1, “HUMAN ANTIBODIES THAT BIND CD19 AND USES THEREOF” (Medarex, Inc., priority 2006, published 2010).

No constants are given. Whether binding was seen depends on the method and setting. Some binding calls cover weakened binding; strength is not graded here.

For this assay, the target named is CD19 on B cells of cynomolgus monkeys (cynomolgus monkey). The assay is described as follows: FACS staining of cynomolgus monkey blood samples.

B1: human monoclonal antibody 21D4 (antibody, V domains shown)
VH: EVQLVQSGAEVKKPGESLKISCKGSGYSFSSSWIGWVRQMPGKGLEWMGIIYPDDSDTRYSPSFQGQVTISADKSIRTAYLQWSSLKASDTAMYYCARHVTMIWGVIIDFWGQGTLVTVSS
VL: AIQLTQSPSSLSASVGDRVTITCRASQGISSALAWYQQKPGKAPKLLIYDASSLESGVPSRFSGSGSGTDFTLTISSLQPEDFATYYCQQFNSYPYTFGQGTKLEIK
B1: the binding entry is “binds”.
